# Measured values reported in the supplement of paper PMC11006884.
# The chains behind the UniProt entries cited, without tags or fusion partners. Where a name states a change or a piece, a line headed by the entry shows the natural chain unless it says otherwise.
# UniProt Q12923: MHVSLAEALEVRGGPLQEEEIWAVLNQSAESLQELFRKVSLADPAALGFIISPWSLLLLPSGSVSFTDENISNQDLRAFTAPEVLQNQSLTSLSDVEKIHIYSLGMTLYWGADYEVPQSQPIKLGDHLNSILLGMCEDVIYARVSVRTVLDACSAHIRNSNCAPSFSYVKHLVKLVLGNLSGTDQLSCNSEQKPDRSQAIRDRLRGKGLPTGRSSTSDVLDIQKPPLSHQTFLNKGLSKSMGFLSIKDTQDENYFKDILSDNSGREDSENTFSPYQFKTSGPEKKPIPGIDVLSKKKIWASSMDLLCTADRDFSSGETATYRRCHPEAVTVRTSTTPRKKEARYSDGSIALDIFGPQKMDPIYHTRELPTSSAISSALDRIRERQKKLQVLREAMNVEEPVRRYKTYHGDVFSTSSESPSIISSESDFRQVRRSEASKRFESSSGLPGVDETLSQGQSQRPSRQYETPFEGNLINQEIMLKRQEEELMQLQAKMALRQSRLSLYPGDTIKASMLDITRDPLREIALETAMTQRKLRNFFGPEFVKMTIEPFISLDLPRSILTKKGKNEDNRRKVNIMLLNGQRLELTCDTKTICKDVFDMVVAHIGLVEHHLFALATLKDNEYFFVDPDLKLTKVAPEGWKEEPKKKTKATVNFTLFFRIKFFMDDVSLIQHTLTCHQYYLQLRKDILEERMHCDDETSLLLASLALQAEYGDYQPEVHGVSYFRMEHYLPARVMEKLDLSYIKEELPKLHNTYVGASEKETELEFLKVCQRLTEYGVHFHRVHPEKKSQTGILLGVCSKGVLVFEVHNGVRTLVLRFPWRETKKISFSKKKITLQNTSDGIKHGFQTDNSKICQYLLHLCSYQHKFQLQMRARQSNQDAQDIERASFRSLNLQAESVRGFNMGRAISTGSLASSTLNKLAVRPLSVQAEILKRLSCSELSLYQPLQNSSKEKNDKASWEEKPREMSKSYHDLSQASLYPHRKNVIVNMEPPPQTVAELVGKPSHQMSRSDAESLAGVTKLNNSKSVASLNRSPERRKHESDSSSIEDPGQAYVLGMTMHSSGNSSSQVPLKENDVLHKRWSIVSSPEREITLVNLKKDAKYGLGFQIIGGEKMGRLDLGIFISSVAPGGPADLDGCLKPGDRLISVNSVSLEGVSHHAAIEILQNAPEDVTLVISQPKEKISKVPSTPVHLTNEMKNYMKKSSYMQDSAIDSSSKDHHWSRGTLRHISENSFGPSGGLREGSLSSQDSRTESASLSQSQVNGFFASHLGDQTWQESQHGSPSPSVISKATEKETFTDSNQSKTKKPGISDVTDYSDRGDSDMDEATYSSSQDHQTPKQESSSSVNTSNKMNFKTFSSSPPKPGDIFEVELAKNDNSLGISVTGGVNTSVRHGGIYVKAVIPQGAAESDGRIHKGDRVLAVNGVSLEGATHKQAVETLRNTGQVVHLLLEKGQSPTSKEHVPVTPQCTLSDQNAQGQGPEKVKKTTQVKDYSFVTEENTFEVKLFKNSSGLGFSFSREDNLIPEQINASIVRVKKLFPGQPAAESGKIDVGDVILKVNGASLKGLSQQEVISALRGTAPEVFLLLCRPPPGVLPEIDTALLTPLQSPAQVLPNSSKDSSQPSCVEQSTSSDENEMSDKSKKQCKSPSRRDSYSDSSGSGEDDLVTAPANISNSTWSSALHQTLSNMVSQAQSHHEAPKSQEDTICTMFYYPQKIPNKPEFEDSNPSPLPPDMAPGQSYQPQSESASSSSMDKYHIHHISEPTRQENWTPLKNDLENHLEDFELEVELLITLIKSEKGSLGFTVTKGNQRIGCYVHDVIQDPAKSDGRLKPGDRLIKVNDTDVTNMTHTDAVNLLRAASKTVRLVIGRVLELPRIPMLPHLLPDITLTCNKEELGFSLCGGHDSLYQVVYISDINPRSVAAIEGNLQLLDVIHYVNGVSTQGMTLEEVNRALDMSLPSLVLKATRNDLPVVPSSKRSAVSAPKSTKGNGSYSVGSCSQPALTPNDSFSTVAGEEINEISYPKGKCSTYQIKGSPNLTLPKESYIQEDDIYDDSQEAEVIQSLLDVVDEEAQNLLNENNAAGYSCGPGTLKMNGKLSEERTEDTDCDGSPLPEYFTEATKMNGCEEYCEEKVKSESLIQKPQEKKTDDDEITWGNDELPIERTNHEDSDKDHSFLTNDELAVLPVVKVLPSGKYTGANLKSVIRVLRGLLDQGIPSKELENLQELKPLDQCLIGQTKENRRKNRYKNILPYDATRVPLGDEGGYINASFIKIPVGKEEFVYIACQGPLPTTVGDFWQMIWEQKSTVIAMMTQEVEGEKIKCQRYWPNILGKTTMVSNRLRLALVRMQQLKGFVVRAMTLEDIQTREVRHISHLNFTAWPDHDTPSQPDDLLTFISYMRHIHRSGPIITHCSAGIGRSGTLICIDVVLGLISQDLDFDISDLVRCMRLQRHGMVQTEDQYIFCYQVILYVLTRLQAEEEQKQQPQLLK
# UniProt Q12906, whole entry, looked up: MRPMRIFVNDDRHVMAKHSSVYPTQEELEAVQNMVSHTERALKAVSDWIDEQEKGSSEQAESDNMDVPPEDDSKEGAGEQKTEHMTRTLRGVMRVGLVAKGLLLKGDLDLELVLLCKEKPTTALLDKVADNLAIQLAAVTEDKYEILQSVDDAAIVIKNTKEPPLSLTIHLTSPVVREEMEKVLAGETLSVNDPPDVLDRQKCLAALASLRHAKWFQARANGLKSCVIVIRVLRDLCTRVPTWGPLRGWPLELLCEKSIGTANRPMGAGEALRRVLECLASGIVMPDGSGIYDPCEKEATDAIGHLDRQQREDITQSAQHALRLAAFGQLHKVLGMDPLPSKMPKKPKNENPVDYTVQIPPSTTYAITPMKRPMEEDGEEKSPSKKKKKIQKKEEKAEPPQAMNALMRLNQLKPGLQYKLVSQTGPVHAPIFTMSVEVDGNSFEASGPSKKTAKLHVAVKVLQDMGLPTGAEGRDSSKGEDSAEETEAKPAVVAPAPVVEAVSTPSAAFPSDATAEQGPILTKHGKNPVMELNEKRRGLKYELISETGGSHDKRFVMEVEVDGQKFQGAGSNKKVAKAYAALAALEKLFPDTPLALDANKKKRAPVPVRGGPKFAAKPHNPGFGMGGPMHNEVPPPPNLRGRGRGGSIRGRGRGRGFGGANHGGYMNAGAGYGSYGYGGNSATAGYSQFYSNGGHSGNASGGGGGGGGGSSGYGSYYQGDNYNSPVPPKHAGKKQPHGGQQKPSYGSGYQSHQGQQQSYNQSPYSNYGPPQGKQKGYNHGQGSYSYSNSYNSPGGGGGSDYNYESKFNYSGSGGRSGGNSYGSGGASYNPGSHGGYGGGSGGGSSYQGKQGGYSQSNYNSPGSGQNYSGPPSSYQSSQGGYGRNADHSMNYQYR
# UniProt Q13111, whole entry, looked up: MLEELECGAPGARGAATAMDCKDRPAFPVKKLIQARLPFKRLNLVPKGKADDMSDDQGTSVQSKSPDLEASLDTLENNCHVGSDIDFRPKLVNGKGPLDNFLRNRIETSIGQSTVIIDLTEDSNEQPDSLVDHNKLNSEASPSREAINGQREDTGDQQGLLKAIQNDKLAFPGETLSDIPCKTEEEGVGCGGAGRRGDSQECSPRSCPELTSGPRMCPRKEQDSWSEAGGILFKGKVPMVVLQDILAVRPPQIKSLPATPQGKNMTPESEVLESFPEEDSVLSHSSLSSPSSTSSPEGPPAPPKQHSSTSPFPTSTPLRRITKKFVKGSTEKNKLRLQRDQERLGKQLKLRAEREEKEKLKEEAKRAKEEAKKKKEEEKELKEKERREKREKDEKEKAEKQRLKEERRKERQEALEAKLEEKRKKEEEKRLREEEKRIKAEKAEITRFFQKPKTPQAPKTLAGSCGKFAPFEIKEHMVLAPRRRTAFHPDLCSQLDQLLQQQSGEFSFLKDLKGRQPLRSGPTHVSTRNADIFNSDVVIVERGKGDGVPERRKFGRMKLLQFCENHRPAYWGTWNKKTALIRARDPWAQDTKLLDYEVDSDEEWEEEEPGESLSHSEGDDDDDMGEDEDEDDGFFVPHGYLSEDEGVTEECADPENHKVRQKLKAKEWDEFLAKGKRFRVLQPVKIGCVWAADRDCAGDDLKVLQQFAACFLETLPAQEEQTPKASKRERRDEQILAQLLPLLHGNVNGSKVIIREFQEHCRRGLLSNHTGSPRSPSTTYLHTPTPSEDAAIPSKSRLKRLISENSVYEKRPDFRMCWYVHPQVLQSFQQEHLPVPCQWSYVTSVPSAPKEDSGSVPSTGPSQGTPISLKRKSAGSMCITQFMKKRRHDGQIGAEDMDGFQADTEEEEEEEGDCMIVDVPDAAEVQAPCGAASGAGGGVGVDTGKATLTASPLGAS
# UniProt Q12874: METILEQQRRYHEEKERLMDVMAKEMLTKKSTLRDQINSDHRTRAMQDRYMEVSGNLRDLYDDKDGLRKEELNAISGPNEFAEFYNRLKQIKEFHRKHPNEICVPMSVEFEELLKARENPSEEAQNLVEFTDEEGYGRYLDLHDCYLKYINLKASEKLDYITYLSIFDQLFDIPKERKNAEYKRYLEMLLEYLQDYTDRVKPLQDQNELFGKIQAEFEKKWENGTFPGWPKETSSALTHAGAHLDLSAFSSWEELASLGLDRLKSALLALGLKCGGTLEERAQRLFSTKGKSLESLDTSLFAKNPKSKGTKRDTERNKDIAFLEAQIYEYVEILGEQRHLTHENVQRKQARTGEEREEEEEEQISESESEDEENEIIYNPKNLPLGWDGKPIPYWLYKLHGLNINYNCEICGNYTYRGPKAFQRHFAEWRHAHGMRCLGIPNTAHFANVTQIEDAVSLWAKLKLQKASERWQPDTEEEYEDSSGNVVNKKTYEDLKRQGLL
# UniProt Q10567: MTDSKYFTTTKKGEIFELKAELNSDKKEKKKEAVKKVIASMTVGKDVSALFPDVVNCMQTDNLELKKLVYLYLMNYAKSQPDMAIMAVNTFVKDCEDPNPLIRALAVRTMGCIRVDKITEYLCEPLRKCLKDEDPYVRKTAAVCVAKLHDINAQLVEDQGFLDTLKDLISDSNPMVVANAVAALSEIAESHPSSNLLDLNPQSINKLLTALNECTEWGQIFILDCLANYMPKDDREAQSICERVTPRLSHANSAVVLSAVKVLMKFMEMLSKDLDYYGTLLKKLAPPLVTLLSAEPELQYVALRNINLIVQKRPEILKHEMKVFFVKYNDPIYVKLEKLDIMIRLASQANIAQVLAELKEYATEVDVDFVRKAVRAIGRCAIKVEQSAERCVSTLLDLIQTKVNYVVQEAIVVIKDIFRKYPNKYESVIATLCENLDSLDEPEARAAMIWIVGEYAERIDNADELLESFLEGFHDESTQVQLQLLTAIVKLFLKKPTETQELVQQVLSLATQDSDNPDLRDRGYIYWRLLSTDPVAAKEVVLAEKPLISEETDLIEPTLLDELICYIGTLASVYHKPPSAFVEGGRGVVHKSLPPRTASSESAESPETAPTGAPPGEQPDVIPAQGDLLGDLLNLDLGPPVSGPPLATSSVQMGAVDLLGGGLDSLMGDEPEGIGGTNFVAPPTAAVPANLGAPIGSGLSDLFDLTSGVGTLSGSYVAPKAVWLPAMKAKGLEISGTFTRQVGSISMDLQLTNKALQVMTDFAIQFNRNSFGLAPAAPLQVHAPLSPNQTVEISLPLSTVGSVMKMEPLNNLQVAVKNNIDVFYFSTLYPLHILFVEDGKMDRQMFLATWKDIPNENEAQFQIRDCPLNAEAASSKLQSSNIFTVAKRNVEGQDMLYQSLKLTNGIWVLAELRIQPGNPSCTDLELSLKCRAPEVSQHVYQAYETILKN
# UniProt Q13310, whole entry: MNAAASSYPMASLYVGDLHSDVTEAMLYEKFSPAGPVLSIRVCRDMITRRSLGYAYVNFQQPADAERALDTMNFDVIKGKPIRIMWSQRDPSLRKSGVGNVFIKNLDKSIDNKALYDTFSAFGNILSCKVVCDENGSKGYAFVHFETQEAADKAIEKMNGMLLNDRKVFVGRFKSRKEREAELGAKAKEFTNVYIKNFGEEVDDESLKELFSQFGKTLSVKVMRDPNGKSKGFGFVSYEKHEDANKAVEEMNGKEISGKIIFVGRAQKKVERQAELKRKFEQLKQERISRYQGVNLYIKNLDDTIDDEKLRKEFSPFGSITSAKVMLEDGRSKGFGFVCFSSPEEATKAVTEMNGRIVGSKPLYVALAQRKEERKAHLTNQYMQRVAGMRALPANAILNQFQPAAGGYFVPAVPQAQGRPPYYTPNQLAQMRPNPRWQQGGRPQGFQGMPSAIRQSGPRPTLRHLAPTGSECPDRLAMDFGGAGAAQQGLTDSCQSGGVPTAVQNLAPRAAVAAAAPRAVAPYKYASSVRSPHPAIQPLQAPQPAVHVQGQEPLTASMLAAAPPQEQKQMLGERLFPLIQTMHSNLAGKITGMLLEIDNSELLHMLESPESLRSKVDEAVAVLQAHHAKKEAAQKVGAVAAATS
# The list shows a part of the results, in another mix than the full data.
# Compound: COC(=O)C#Cc1ccccc1 [methyl 3-phenylpropiolate]
# Test: log2 ratio of iodoacetamide-alkyne labeling of the cysteine site, DMSO over compound (competition); higher = stronger covalent engagement of the cysteine by the compound, active = 1 or more
# Conditions: 500 µM; treatment time 1 h; system: HEK293T cell lysate
# Outline: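 HEK293T lysate (2 mg/mL) was treated with DMSO or electrophile (500 µM, 1 h, ambient temperature), then iodoacetamide alkyne (1 h), clicked to sCIP-TMT reagents, pooled, trypsin-digested overnight at 37 °C, streptavidin-enriched and acid-eluted. Peptides were run on Orbitrap Eclipse LC-MS/MS with FAIMS and quantified in FragPipe. The log2 competition ratio per cysteine is mean control-channel over mean compound-channel reporter intensity. Duplicate channels and three replicates were used, and cysteines quantified in only one replicate were excluded.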
row,Target,log2 ratio of iodoacetamide-alkyne labeling
1,CSTF3 C536 (UniProt Q12996),inactive: 0.38
2,NSUN2 C673 (UniProt Q08J23),inactive: 0.0214
3,NSUN2 C221 (UniProt Q08J23),inactive: 0.104
4,UniProt Q13131_C238,inactive: 0.387
5,AKAP12 C1407 (UniProt Q02952),active: 1.16
6,KLC1 C55 (UniProt Q07866),inactive: 0.381
7,TJP1 C1727 (UniProt Q07157),inactive: 0.0718
8,GTF3C1 C431 (UniProt Q12789),inactive: 0.123
9,GTF3C1 C1783 (UniProt Q12789),inactive: 0.152
10,PTPN13 C937 (UniProt Q12923),inactive: 0.773
11,UniProt Q12948_C529,inactive: 0.755
12,PTPN13 C2229 (UniProt Q12923),inactive: -0.0355
13,RING1 C72 (UniProt Q06587),inactive: 0.171
14,GPS1 C251 (UniProt Q13098),inactive: 0.23
15,ILF3 C278 (UniProt Q12906),inactive: -0.191
16,TRIM28 C232 (UniProt Q13263),inactive: 0.0352
17,GFPT1 C264 (UniProt Q06210),inactive: 0.349
18,UniProt Q13247_C121,inactive: -0.0624
19,TRAF2 C124 (UniProt Q12933),inactive: 0.26

# Single entries from the list.
# log2 ratio of iodoacetamide-alkyne labeling, GFPT1 C264 (UniProt Q06210) reads inactive: 0.349
# log2 ratio of iodoacetamide-alkyne labeling, PTPN13 C2229 (UniProt Q12923) reads inactive: -0.0355

# Carrying on.

row,Target,log2 ratio of iodoacetamide-alkyne labeling
1,NFIA C404 (UniProt Q12857),inactive: 0.423
2,TRIM28 C68 (UniProt Q13263),inactive: 0.112
3,TJP1 C1740 (UniProt Q07157),inactive: 0.525
4,TCOF1 C1012 (UniProt Q13428),inactive: 0.438
5,ILK C422 (UniProt Q13418),inactive: 0.358
6,AKAP12 C578 (UniProt Q02952),inactive: 0.281
7,CEBPZ C411 (UniProt Q03701),inactive: 0.261
8,DHX9 C438 (UniProt Q08211),inactive: 0.228
9,CHAF1A C202 (UniProt Q13111),inactive: 0.923
10,EIF2B5 C335 (UniProt Q13144),inactive: 0.267
11,TCOF1 C38 (UniProt Q13428),inactive: 0.285
12,LGALS3BP C496 (UniProt Q08380),active: 1.72
13,SF3A3 C437 (UniProt Q12874),inactive: 0.056
14,CBX3 C177 (UniProt Q13185),inactive: 0.396
15,UniProt Q12905_C37,inactive: 0.0335
16,AP1B1 C921 (UniProt Q10567),inactive: 0.495
17,CSTF3 C646 (UniProt Q12996),inactive: 0.187
18,UniProt Q08117_C89,inactive: 0.488
19,PABPC4 C132 (UniProt Q13310),inactive: 0.046
